Results are given in words; binding and its absence hold for the method and conditions named. Binding seen in cells or lysates may run through a third protein. Some binding calls cover weakened binding; strength is not graded here.
Molecular target: endogenous Synaptotagmin 1 of primary hippocampal neurons (proximity labelling and PLA) (rat (endogenous in primary hippocampal neurons)) (UniProt P21707)
Assay: proximity ligation; in situ PLA (Duolink) in primary hippocampal neurons with mouse anti-Syt1 luminal and rabbit anti-CNTFRα antibodies applied live (40 min, 37 °C); control: anti-ribeye; also after TTX (3 µM, 2 h; signal decreased) or Cntf (8 nM, 2 h; signal unchanged)

Sequences of proteins named here, by UniProt entry; tags and fusion partners are left off.
UniProt P21707: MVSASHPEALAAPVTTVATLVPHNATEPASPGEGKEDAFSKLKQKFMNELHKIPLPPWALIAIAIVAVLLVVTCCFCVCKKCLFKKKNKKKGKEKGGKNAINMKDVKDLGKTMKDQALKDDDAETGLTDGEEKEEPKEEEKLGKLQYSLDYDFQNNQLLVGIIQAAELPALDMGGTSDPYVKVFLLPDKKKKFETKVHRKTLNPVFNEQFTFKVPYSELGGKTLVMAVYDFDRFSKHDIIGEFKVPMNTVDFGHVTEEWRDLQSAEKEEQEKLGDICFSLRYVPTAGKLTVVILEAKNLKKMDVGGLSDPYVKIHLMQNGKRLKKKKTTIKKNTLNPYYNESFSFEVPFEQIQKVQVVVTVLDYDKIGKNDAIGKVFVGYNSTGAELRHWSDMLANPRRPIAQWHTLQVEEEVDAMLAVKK

B1: ciliary neurotrophic factor receptor (Cntfr) (receptor, UniProt Q08406 23-342)
chain: QKHSPQEAPHVQYERLGTDVTLPCGTASWDAAVTWRVNGTDLAPDLLNGSQLILRSLELGHSGLYACFHRDSWHLRHQVLLHVGLPPREPVLSCRSNTYPKGFYCSWHLSAPTYIPNTFNVTVLHGSKMMVCEKDPALKNRCHIRYMHLFSTIKYKVSISVSNALGHNTTAITFDEFTIVKPDPPENVVARPVPSNPRRLEVTWQTPSTWPDPESFPLKFFLRYRPLILDQWQHVELSNGTAHTITDAYAGKEYIIQVAAKDNEIGTWSDWSVAAHATPWTEEPRHLTTEAQAPETTTSTTSSLAPPPTTKICDPGELSS
- binding: binds

Source: article PMC13185310, “A versatile nanobody platform for live and super-resolution imaging of synaptic vesicle dynamics and plasticity in rodent and human neurons” (Journal of Nanobiotechnology, 2026)
